US20250255972A1, “METHOD OF TREATING UVEITIS WITH MULTIVALENT PROTEIN-HYALURONIC ACID POLYMER CONJUGATE” (Valitor, Inc., priority 2022, published 2025)
At least one compound was matched to its structure with a doubt left.

Test system: experimental autoimmune uveoretinitis (EAU) in rats
Test: Rat experimental autoimmune uveoretinitis (EAU) model, Example 8
Format: in vivo, Male Lewis rats
Conditions: FIG. 6A, ITV, or Conjugate #7 (12.5 μg), n=8, one day after ITV treatment, vs vehicle
Experimental: The efficacy of mu_anti-TNFα_aH_CYS MVPs were validated to provide a treatment effect that can sufficiently reduce the symptoms of uveitis. A rat model of experimental autoimmune uveoretinitis (EAU) was used as a model of chronic posterior uveitis in humans. This model was induced by systemic immunization with the uveitogenic interphotoreceptor retinoid-binding protein (IRBP), and symptoms of uveitis appeared after 9-11 days. Rats were treated intravitreally with 12.5 μg of mu_anti-TNFα_aH_CYS MVP (Conjugate #7). As a positive control, dexamethasone was used.
Male Lewis rats were divided into 4 groups (n=8) and randomized by weight. […] On Day 1, rats were immunized by a subcutaneous injection at the base of the tail and in each thigh with 30 μg of bovine IRBP peptide R16 in 0.2 mL of Freund's adjuvant. On days 8 and 10, rat eyes were treated bilaterally with a 5 μL ITV injection of either dose of their assigned treatment. Prior to the start of the study and on days 7, 9, 11, 14, we assessed ocular inflammation by slit lamp microscopy and assigned a clinical EAU score of 0-4 based on the appearance of inflammation. On day 14, animals were euthanized, one eye from each animal was processed for histopathology, and assigned a score of 0-4 based on the appearance of inflammation and cell infiltration. EAU and histopathology were scored based on published standardized scoring systems.

Which “Average inflammation score (0=none to 4=severe)” value does the source give for `C[C@@H]1C[C@H]2[C@@H]3CCC4=CC(=O)C=C[C@]4(C)[C@@]3(F)[C@@H](O)C[C@]2(C)[C@@]1(O)C(=O)CO` [dexamethasone, reference compound] here?
Its value is “decreased inflammation compared to the vehicle control”.
